# Counter-ions that a name gives are not always drawn. The list shows a part of the results. The calls rarely recur for the same compound in another form.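 Kinases, fused to nanoluciferase, were expressed in K562 cells; luminescence was measured every 4 h from 2 to 18 h as percent of control (DMSO = 100%, positive control = 0%). A time point is decreased if signal falls significantly (2 sigma). Hits were called by the authors by a rule that is not shown; the count of time points alone does not decide it.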
# Chains of the proteins cited; added tags and fusions are not shown. Lines headed by an entry give the natural chain unless they say otherwise; changes in a name come on top.
# UniProt Q15208: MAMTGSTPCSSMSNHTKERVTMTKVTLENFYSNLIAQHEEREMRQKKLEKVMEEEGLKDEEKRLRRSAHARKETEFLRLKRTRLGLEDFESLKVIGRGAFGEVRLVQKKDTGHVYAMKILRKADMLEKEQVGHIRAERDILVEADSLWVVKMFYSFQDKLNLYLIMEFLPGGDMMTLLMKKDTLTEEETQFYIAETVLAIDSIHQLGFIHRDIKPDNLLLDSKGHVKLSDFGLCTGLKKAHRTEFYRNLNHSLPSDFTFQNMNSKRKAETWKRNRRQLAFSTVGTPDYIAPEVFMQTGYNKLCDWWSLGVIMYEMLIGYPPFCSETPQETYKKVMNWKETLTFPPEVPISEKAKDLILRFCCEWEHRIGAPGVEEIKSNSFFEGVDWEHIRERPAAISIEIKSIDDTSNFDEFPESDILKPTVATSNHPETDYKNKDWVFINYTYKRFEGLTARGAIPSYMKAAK
# UniProt P42680: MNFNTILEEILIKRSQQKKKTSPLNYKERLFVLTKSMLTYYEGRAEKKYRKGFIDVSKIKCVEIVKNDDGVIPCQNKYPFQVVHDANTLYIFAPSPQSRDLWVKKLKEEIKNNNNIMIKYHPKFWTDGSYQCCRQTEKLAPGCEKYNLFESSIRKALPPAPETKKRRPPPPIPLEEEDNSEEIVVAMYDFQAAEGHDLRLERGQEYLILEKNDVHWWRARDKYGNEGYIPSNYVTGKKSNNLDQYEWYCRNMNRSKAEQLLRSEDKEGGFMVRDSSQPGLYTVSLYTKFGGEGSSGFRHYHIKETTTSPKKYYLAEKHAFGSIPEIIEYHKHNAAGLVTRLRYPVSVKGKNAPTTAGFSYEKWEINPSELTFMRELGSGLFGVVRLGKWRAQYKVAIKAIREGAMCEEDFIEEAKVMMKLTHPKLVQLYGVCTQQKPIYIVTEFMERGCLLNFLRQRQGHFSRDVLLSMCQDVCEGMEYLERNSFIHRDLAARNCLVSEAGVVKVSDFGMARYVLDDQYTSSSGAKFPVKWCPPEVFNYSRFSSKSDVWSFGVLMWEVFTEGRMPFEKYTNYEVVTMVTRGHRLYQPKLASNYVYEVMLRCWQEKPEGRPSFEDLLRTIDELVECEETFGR
# UniProt P29597: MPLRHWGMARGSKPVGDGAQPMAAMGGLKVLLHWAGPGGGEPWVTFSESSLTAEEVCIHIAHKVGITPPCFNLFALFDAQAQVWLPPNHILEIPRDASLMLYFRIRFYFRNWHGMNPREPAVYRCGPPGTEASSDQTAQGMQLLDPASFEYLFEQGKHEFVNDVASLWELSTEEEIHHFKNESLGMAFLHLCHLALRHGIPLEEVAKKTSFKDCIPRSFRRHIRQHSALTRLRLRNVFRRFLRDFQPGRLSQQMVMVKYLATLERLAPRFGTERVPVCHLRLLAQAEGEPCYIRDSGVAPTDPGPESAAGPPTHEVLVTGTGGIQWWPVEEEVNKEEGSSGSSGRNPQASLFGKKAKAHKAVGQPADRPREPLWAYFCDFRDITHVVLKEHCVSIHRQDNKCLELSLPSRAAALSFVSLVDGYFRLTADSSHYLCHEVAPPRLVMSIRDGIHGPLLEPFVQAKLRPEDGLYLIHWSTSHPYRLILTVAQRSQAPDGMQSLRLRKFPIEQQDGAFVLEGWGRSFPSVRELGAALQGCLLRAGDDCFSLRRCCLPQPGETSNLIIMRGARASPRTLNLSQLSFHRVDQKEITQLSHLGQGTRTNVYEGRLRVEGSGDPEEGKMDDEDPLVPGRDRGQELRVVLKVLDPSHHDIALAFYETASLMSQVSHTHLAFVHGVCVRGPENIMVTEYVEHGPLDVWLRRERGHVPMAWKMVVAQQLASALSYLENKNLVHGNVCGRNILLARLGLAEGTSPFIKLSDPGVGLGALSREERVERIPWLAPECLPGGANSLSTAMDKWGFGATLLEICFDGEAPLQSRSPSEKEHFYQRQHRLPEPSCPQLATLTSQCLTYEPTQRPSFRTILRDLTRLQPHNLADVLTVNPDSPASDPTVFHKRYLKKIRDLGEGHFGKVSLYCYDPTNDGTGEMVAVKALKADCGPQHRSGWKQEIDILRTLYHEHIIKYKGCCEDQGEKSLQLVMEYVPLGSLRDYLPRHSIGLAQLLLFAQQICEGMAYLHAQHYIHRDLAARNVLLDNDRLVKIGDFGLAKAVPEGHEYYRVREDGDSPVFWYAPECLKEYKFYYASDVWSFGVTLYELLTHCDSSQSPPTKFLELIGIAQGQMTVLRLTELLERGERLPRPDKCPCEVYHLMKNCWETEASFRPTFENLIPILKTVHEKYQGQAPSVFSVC
# UniProt Q6PHR2: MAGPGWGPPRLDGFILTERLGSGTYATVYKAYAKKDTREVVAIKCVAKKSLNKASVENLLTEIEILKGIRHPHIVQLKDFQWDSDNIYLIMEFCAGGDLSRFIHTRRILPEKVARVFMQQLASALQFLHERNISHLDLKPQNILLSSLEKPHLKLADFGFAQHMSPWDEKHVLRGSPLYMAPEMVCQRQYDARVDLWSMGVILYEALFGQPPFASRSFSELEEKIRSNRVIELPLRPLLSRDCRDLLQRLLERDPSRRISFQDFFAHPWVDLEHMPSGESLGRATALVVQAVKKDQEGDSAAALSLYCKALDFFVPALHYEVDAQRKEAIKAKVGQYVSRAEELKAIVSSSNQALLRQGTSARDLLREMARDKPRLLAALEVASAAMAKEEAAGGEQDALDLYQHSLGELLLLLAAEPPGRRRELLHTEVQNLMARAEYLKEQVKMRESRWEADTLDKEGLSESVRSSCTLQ
# UniProt P07947, whole entry, looked up: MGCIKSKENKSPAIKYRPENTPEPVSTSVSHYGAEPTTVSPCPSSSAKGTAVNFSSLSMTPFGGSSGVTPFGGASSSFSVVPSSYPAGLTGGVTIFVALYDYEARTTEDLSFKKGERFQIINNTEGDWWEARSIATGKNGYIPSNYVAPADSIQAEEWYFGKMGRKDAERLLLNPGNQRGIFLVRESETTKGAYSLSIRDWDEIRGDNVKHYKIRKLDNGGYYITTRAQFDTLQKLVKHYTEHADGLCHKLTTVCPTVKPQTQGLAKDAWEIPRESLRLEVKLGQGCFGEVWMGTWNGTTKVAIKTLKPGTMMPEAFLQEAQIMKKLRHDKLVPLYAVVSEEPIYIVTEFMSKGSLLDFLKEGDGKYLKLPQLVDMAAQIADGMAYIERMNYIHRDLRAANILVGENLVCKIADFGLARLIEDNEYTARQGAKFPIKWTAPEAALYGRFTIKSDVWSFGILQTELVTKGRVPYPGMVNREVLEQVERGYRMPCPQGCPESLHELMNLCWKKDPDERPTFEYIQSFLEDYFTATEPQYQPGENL
# UniProt P43403: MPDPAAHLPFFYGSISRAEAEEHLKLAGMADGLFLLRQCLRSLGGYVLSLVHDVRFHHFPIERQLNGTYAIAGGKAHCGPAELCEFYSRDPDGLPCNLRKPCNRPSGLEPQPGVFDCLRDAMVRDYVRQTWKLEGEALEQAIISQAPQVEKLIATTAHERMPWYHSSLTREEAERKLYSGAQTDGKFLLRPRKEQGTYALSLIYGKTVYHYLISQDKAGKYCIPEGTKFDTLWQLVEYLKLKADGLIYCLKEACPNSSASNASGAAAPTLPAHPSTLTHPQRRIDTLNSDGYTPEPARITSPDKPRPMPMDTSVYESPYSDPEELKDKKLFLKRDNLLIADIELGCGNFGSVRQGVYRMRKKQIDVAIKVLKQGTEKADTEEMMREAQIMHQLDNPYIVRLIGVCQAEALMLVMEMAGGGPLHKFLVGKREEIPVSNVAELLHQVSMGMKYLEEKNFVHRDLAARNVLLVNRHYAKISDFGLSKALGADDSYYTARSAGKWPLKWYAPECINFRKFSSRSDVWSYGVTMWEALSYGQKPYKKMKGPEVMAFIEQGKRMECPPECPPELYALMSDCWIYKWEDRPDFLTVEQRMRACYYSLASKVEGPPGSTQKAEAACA
# UniProt P11802: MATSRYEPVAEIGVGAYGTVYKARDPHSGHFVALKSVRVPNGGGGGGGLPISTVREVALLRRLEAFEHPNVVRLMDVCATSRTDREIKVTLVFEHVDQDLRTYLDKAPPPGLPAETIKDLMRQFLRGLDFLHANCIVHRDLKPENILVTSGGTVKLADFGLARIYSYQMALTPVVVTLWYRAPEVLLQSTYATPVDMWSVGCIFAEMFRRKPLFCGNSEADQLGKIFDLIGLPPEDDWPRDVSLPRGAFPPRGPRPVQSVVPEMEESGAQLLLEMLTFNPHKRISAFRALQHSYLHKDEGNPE
# UniProt P50613: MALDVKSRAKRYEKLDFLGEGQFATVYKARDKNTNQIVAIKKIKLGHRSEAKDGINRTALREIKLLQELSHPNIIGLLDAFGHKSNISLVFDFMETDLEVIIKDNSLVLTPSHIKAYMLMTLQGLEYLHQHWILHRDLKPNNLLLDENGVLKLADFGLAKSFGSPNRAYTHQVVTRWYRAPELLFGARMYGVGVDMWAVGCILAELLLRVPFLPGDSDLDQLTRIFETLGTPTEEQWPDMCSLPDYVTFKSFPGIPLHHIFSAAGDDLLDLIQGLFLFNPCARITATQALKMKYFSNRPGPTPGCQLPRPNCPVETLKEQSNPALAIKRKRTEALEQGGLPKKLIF
# Experiments:
# Settings in all cases: K562, 2-18 h
# STK38 = STK38 (UniProt Q15208); test: kinase-Nluc reporter destabilization hit call (1 = scored as downregulated) (binary); higher = compound decreases kinase abundance
# SYK = SYK (UniProt P43405); test: as above
# TEC = TEC (UniProt P42680); test: as above
# TYK2 = TYK2 (UniProt P29597); test: as above
# ULK3 = ULK3 (UniProt Q6PHR2); test: as above
# YES1 = YES1 (UniProt P07947); test: as above
# ZAK = ZAK (UniProt Q9NYL2); test: as above
# ZAP70 = ZAP70 (UniProt P43403); test: as above
# CDK4 = CDK4 (UniProt P11802); test: number of time points (of 4; 2 h point missing) at which kinase-Nluc abundance scored as decreased, DMSO-normalised (count); higher = more persistent destabilization
# CDK7 = CDK7 (UniProt P50613); test: as above
Compound,kinase-Nluc reporter destabilization hit call (STK38; 2.5 µM),kinase-Nluc reporter destabilization hit call (SYK; 2.5 µM),kinase-Nluc reporter destabilization hit call (TEC; 2.5 µM),kinase-Nluc reporter destabilization hit call (TYK2; 2.5 µM),kinase-Nluc reporter destabilization hit call (ULK3; 2.5 µM),kinase-Nluc reporter destabilization hit call (YES1; 2.5 µM),kinase-Nluc reporter destabilization hit call (ZAK; 2.5 µM),kinase-Nluc reporter destabilization hit call (ZAP70; 2.5 µM),number of time points (CDK4; 2.5 µM),number of time points (CDK7; 2.5 µM),kinase-Nluc reporter destabilization hit call (STK38; 10 µM),kinase-Nluc reporter destabilization hit call (SYK; 10 µM),kinase-Nluc reporter destabilization hit call (TEC; 10 µM),kinase-Nluc reporter destabilization hit call (TYK2; 10 µM),kinase-Nluc reporter destabilization hit call (ULK3; 10 µM),kinase-Nluc reporter destabilization hit call (YES1; 10 µM),kinase-Nluc reporter destabilization hit call (ZAK; 10 µM),kinase-Nluc reporter destabilization hit call (ZAP70; 10 µM),number of time points (CDK4; 10 µM),number of time points (CDK7; 10 µM)
Cc1cnc(Nc2ccc(OCCN3CCCC3)cc2)nc1Nc1cccc(S(=O)(=O)NC(C)(C)C)c1 [Fedratinib],inactive: 0,inactive: 0,inactive: 0,inactive: 0,inactive: 0,inactive: 0,inactive: 0,inactive: 0,0,0,–,–,–,–,–,–,–,–,–,–
COc1cc2ncnc(Nc3ccc(F)c(Cl)c3)c2cc1OCCCN1CCOCC1 [Gefitinib],–,–,–,–,–,–,–,–,–,–,inactive: 0,inactive: 0,inactive: 0,active: 1,inactive: 0,inactive: 0,inactive: 0,inactive: 0,0,0
CC(C)N(CCC(=O)c1ccc2ccccc2c1)Cc1ccccc1,–,–,–,–,–,–,–,–,–,–,inactive: 0,inactive: 0,inactive: 0,inactive: 0,inactive: 0,inactive: 0,inactive: 0,inactive: 0,0,0
O=C(c1ccc(/C=C/c2n[nH]c3ccccc23)cc1)N1CCNCC1,inactive: 0,inactive: 0,inactive: 0,inactive: 0,inactive: 0,inactive: 0,inactive: 0,inactive: 0,0,0,–,–,–,–,–,–,–,–,–,–
Cc1ccc2c(=O)c3cccc(CC(=O)O)c3oc2c1C [Vadimezan],–,–,–,–,–,–,–,–,–,–,inactive: 0,inactive: 0,inactive: 0,inactive: 0,inactive: 0,inactive: 0,inactive: 0,inactive: 0,0,0
Cc1ccc(Nc2nccc(N(C)c3ccc4c(C)n(C)nc4c3)n2)cc1S(N)(=O)=O [Pazopanib (Hydrochloride)],–,–,–,–,–,–,–,–,–,–,inactive: 0,inactive: 0,inactive: 0,inactive: 0,inactive: 0,inactive: 0,inactive: 0,inactive: 0,0,0
COc1cc(N2CCN(C)CC2)ccc1Nc1nccc(-c2cn(C)c3cnccc23)n1,–,–,–,–,–,–,–,–,–,–,inactive: 0,inactive: 0,inactive: 0,inactive: 0,inactive: 0,inactive: 0,inactive: 0,inactive: 0,0,0
Cc1[nH]c(/C=C2\C(=O)Nc3ccc(F)cc32)c(C)c1C(=O)NC[C@H](O)CN1CCOCC1,inactive: 0,inactive: 0,inactive: 0,inactive: 0,inactive: 0,inactive: 0,inactive: 0,inactive: 0,0,0,–,–,–,–,–,–,–,–,–,–
O=C(Nc1cccc(Nc2nccc(Nc3cccc(C(F)(F)F)c3)n2)c1)C1CC1 [Aurora kinase inhibitor-3],inactive: 0,inactive: 0,inactive: 0,inactive: 0,inactive: 0,inactive: 0,inactive: 0,inactive: 0,0,0,–,–,–,–,–,–,–,–,–,–
CNC(=O)c1cc(Oc2ccc(NC(=O)Nc3ccc(Cl)c(C(F)(F)F)c3)cc2)ccn1 [Sorafenib],inactive: 0,inactive: 0,inactive: 0,inactive: 0,inactive: 0,inactive: 0,inactive: 0,inactive: 0,0,3,–,–,–,–,–,–,–,–,–,–
COc1cc(N2CCC(N3CCN(C)CC3)CC2)ccc1Nc1ncc(Cl)c(Nc2ccccc2S(=O)(=O)C(C)C)n1,inactive: 0,inactive: 0,inactive: 0,inactive: 0,inactive: 0,inactive: 0,inactive: 0,inactive: 0,0,0,–,–,–,–,–,–,–,–,–,–
C[C@H]1CN(C2COC2)CCN1c1ccc(Nc2cc(-c3ccnc(N4CCn5c(cc6c5CC(C)(C)C6)C4=O)c3CO)cn(C)c2=O)nc1 [Fenebrutinib],–,–,–,–,–,–,–,–,–,–,inactive: 0,inactive: 0,inactive: 0,inactive: 0,inactive: 0,inactive: 0,inactive: 0,inactive: 0,0,0
COc1ccc(-c2cc(C(=O)NN=C(C)c3ccc(OC)c(OC)c3)[nH]n2)cc1,–,–,–,–,–,–,–,–,–,–,inactive: 0,inactive: 0,inactive: 0,inactive: 0,inactive: 0,inactive: 0,inactive: 0,inactive: 0,0,0
CC(C)(C)n1nc(-c2ccc(Cl)cc2)c2c(N)ncnc21,–,–,–,–,–,–,–,–,–,–,inactive: 0,inactive: 0,inactive: 0,inactive: 0,inactive: 0,inactive: 0,inactive: 0,inactive: 0,0,0
Cc1cc(C)n2c1C=C1C=CC(CCC(=O)NCCN3CCN(C/C=C/C(=O)N4CCCC(n5nc(-c6ccc(Oc7ccccc7)cc6)c6c(N)ncnc65)C4)CC3)=[N+]1[B-]2(F)F (stereo not given),inactive: 0,inactive: 0,inactive: 0,inactive: 0,inactive: 0,inactive: 0,inactive: 0,inactive: 0,0,0,–,–,–,–,–,–,–,–,–,–
CCCOc1ccc(C=C2SC(=O)NC2=O)cc1,–,–,–,–,–,–,–,–,–,–,inactive: 0,inactive: 0,inactive: 0,inactive: 0,inactive: 0,inactive: 0,inactive: 0,inactive: 0,0,0

# Copied from the list.
# Entry for Cc1ccc2c(=O)c3cccc(CC(=O)O)c3oc2c1C [Vadimezan] under number of time points (CDK4; 10 µM): 0
# Entry for CCCOc1ccc(C=C2SC(=O)NC2=O)cc1 under kinase-Nluc reporter destabilization hit call (ZAP70; 10 µM): inactive: 0

# Source: the supplement of paper PMC12823440, “Inhibitors supercharge kinase turnover through native proteolytic circuits” (Nature, 2025)
